{"source": "patent US7691628", "about": "“Use of Rev-erb family of receptors in screening” (Merck Patent GmbH)", "key": {"[1]": {"biological_target": "T1, Rev-erb alpha (NR1D1) (Homo sapiens) (UniProt P20393)", "T1 sequence (looked up, limits assumed)": "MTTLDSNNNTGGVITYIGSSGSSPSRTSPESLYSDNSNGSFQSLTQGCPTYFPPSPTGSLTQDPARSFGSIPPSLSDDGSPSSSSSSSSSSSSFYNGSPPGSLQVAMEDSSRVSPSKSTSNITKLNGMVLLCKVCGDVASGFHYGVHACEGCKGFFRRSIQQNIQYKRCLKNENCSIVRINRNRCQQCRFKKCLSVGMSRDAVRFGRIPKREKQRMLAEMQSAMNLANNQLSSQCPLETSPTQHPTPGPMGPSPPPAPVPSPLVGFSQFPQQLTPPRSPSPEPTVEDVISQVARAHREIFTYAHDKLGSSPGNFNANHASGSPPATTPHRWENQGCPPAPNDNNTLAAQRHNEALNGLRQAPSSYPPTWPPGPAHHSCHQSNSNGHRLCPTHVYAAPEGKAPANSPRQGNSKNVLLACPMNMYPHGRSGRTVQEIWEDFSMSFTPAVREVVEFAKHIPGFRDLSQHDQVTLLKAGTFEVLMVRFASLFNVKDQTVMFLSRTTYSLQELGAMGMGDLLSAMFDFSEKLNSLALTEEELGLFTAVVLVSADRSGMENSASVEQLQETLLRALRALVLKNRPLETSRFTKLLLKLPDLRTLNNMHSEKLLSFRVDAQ", "assay": "activity in cells", "conditions": "protein in cells, protein details: pSG5-hRev-erbα expression vector, only the site is given"}, "[2]": {"biological_target": "T1, Rev-erb alpha (NR1D1) (Homo sapiens)", "assay": "EMSA", "conditions": "monomer-type complex, weaker than Rev-DR2; protein translated in vitro; protein details: pSG5-hRev-erbα, TnT T7 rabbit reticulocyte lysate; label: 32P"}}, "note": "For some of these results: A negative result means that nothing was seen under these conditions. Tags and fusion partners may be left off the protein sequences shown. For some of these results: A weaker result is weaker than the reference pair of the same experiment.", "data": [{"sequence": "GATCCGATAAAACACACATGAA / GATCTTCATGTGTGTTTTATCG [(-33/-16)TaTaKO, 3 copies upstream of Tk promoter]", "values": [{"measurement": "activity on this sequence", "setting": "[1]; mutation suppresses sensitivity to hRev-erbα", "result": "not active"}]}, {"sequence": "GATCCGATAAAACAGGTCAGAA / GATCTTCTGACCTGTTTTATCG [(-33/-16)WT, 3 copies upstream of Tk promoter]", "values": [{"measurement": "activity on this sequence", "setting": "[1]; reporter repressed by hRev-erbα", "result": "active"}]}, {"sequence": "GATCCGGAAAAGTGTGTCACTGGGGCACGA / GATCTCGTGCCCCAGTGACACACTTTTCCG [Rev-DR2]", "values": [{"measurement": "activity on this sequence", "setting": "[1]; 3 copies upstream of Tk promoter, increased sensitivity to hRev-erbα", "result": "active"}]}, {"sequence": "GATCTGATATAAAACAGGTCAGAACCCTC / GATCGAGGGTTCTGACCTGTTTTATATCA [HCIII-TaTaWT (-34/-10)]", "values": [{"measurement": "binding result", "setting": "[2]", "result": "binds more weakly"}]}]}
